PubChem BioAssay AID1259254 – NCATS | 2017
Purpose: 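Genome-wide screen for genes that prevent DNA re-replication in cancer cells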 (primary screen). Cell system: human HCT116 colorectal cancer cells. Knock-down reagent: single siRNA against human genes. Duration: 3 days. Measurement: 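Nuclei stained with Hoechst and imaged; cell-cycle phase assigned by DNA content; G2 share scaled per plate, non-targeting siRNA 0%, GMNN siRNA 100%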. Reading the numbers: G2 robust z-score and G2 cells, % of GMNN control: higher = more G2 cells, more excess DNA replication; raw share of cells in G2: higher = larger share of cells with G2 DNA content. Hit rule: 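An siRNA counts as active if its G2 robust z-score lies at least 5 MADs above the screen median; here such calls match roughly 38% of GMNN control or more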.
The deposit covers about 59,000 reagents; below is an unselected part. Over the whole deposit, about 1,550 (2.6%) are marked active. 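G2 share is only a proxy for re-replication; each gene was hit by three separate siRNAs, and active genes were retested.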 Raw values are not corrected between plates. Reagents against one gene are numbered here. Not stated in the record: the amount of reagent.

| G2 robust z-score | G2 cells, % of GMNN control | raw share of cells in G2 (%) | Call | target gene | reagent no. |
| --- | --- | --- | --- | --- | --- |
| 0.644 | 7.5 | 7.73 | inactive | DOCK2 (dedicator of cytokinesis 2) | 1 |
| -0.603 | -1.28 | 3.66 | inactive | DOCK2 (dedicator of cytokinesis 2) | 2 |
| -0.897 | -3.34 | 3.77 | inactive | DOCK2 (dedicator of cytokinesis 2) | 3 |
| -0.91 | -3.43 | 3.61 | inactive | IFRD2 (interferon related developmental regulator 2) | 1 |
| -0.507 | -0.598 | 3.66 | inactive | IFRD2 (interferon related developmental regulator 2) | 2 |
| 1.72 | 15 | 8.67 | inactive | IFRD2 (interferon related developmental regulator 2) | 3 |
| -0.725 | -2.14 | 3.61 | inactive | MED13L (mediator complex subunit 13L) | 1 |
| -0.416 | 0.0388 | 3.96 | inactive | MED13L (mediator complex subunit 13L) | 2 |
| 1.09 | 10.7 | 7.02 | inactive | MED13L (mediator complex subunit 13L) | 3 |
| -1.58 | -8.14 | 2.33 | inactive | NUP42 (nucleoporin 42) | 1 |
| 0.714 | 7.99 | 7.48 | inactive | NUP42 (nucleoporin 42) | 2 |
| 2.44 | 20.2 | 12.2 | inactive | NUP42 (nucleoporin 42) | 3 |
| -0.802 | -2.68 | 3.8 | inactive | TLCD3A (TLC domain containing 3A) | 1 |
| -0.383 | 0.275 | 4.29 | inactive | TLCD3A (TLC domain containing 3A) | 2 |
| -0.15 | 1.91 | 6.23 | inactive | TLCD3A (TLC domain containing 3A) | 3 |
| 0.381 | 5.64 | 6.83 | inactive | TG (thyroglobulin) | 1 |
| 4.25 | 32.9 | 15.1 | inactive | TG (thyroglobulin) | 2 |
| -1.35 | -6.51 | 2.74 | inactive | TG (thyroglobulin) | 3 |
| 1.85 | 16 | 10.6 | inactive | CDC42BPG (CDC42 binding protein kinase gamma) | 1 |
| 1.99 | 17 | 11.4 | inactive | CDC42BPG (CDC42 binding protein kinase gamma) | 2 |
| -0.266 | 1.09 | 4.03 | inactive | CDC42BPG (CDC42 binding protein kinase gamma) | 3 |
| -0.744 | -2.27 | 4.49 | inactive | CHMP6 (charged multivesicular body protein 6) | 1 |
| 1.48 | 13.4 | 9.05 | inactive | CHMP6 (charged multivesicular body protein 6) | 2 |
| -0.228 | 1.36 | 5.29 | inactive | CHMP6 (charged multivesicular body protein 6) | 3 |
| -1.71 | -9.07 | 0.356 | inactive | CEND1 (cell cycle exit and neuronal differentiation 1) | 1 |
| 0.461 | 6.21 | 6.89 | inactive | CEND1 (cell cycle exit and neuronal differentiation 1) | 2 |
| 2.24 | 18.7 | 9.38 | inactive | CEND1 (cell cycle exit and neuronal differentiation 1) | 3 |
| -0.825 | -2.84 | 2.59 | inactive | ARL13B (ARF like GTPase 13B) | 1 |
| 0.664 | 7.64 | 5.52 | inactive | ARL13B (ARF like GTPase 13B) | 2 |
| -0.253 | 1.19 | 3.14 | inactive | ARL13B (ARF like GTPase 13B) | 3 |
| 3.17 | 25.3 | 14 | inactive | SLC17A8 | 1 |
| -0.0911 | 2.33 | 7.07 | inactive | SLC17A8 | 2 |
| -0.122 | 2.11 | 5.59 | inactive | SLC17A8 | 3 |
| -0.421 | 0.00352 | 3.78 | inactive | SH2D7 (SH2 domain containing 7) | 1 |
| -0.638 | -1.52 | 2.66 | inactive | SH2D7 (SH2 domain containing 7) | 2 |
| 5.02 | 38.3 | 15.2 | active | SH2D7 (SH2 domain containing 7) | 3 |
| 0.397 | 5.76 | 5.8 | inactive | PPIAP59 (peptidylprolyl isomerase A pseudogene 59) | 1 |
| 0.0437 | 3.27 | 6.15 | inactive | PPIAP59 (peptidylprolyl isomerase A pseudogene 59) | 2 |
| -0.303 | 0.838 | 4.12 | inactive | PPIAP59 (peptidylprolyl isomerase A pseudogene 59) | 3 |
| 3.26 | 25.9 | 13.7 | inactive | KRT77 (keratin 77) | 1 |
| -1.12 | -4.94 | 3.77 | inactive | KRT77 (keratin 77) | 2 |
| -0.102 | 2.25 | 5.84 | inactive | KRT77 (keratin 77) | 3 |
| 5.19 | 39.5 | 16.6 | active | RPL21P62 (ribosomal protein L21 pseudogene 62) | 1 |
| 1.72 | 15.1 | 9.45 | inactive | RPL21P62 (ribosomal protein L21 pseudogene 62) | 2 |
| 0.497 | 6.47 | 5.87 | inactive | RPL21P62 (ribosomal protein L21 pseudogene 62) | 3 |
| -0.147 | 1.93 | 5.11 | inactive | RPRD1B (regulation of nuclear pre-mRNA domain containing 1B) | 1 |
| -0.431 | -0.0629 | 4.43 | inactive | RPRD1B (regulation of nuclear pre-mRNA domain containing 1B) | 2 |
| 1.54 | 13.8 | 7.4 | inactive | RPRD1B (regulation of nuclear pre-mRNA domain containing 1B) | 3 |

Records listed so far whose gene name starts with P or p:
| G2 robust z-score | G2 cells, % of GMNN control | raw share of cells in G2 (%) | Call | target gene | reagent no. |
| --- | --- | --- | --- | --- | --- |
| 0.397 | 5.76 | 5.8 | inactive | PPIAP59 (peptidylprolyl isomerase A pseudogene 59) | 1 |
| 0.0437 | 3.27 | 6.15 | inactive | PPIAP59 (peptidylprolyl isomerase A pseudogene 59) | 2 |
| -0.303 | 0.838 | 4.12 | inactive | PPIAP59 (peptidylprolyl isomerase A pseudogene 59) | 3 |
